Test results published in article PMC10897170.
Results are given in words; binding and its absence hold for the method and conditions named. Binding seen in cells or lysates may run through a third protein. Some binding calls cover weakened binding; strength is not graded here. For part of these data: Tags and fused reporters may be left off the sequences shown. One block for each molecule: values may come before it.

Amino acid sequences for entries named in this document (tags omitted).
UniProt Q61656: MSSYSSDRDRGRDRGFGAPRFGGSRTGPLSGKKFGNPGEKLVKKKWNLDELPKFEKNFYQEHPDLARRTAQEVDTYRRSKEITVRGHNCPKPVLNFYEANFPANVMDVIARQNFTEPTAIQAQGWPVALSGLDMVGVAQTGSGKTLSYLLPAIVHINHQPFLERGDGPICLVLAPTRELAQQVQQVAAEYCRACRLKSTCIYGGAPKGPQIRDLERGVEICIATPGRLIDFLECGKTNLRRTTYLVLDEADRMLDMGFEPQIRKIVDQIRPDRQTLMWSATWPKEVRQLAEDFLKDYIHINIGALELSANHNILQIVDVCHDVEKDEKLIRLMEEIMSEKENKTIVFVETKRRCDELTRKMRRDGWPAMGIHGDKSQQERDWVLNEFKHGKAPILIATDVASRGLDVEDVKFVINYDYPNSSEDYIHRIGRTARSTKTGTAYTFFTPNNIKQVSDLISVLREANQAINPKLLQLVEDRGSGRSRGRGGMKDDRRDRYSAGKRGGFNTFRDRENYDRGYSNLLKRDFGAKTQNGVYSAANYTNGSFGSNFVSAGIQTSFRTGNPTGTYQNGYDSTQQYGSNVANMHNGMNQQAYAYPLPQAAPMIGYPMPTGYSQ
UniProt Q8C3P7: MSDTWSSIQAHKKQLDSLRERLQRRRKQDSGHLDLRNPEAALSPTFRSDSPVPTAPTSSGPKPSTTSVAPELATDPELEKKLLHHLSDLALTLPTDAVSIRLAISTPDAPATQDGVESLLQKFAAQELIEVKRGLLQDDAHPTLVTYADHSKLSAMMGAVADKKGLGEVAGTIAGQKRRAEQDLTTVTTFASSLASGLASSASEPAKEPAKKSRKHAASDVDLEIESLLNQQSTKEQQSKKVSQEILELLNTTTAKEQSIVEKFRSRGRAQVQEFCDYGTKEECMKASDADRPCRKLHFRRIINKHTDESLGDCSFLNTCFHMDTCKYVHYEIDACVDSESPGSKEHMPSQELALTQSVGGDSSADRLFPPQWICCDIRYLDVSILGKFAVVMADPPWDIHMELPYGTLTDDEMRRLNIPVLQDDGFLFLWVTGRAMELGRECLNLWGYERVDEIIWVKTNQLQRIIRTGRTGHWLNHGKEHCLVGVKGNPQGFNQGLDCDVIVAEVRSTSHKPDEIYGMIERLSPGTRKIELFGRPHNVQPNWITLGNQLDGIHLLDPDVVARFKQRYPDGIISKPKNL
UniProt Q9DBY1: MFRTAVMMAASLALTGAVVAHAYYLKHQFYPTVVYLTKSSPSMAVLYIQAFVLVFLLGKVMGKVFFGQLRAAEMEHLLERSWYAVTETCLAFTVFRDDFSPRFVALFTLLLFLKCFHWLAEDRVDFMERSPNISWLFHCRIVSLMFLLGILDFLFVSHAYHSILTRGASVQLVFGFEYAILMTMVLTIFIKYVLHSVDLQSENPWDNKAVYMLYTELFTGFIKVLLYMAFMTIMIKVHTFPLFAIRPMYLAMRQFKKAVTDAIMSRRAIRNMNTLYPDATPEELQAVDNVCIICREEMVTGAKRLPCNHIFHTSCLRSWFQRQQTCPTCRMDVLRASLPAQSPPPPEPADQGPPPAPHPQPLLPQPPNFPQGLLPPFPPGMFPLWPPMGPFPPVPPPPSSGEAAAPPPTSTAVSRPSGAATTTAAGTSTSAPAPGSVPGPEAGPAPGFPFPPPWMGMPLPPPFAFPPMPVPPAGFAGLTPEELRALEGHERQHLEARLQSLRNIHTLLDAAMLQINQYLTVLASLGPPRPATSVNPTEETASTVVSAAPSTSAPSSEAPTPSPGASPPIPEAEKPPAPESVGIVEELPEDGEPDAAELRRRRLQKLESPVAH

Key:
[1] = target: DDX5 (endogenous, mouse cells) (mouse (endogenous in MEFs and mouse macrophages)) (UniProt Q61656); assay: co-IP; endogenous proteins in MEF lysates; precipitated with anti-DDX5, anti-METTL3 or anti-METTL14 antibody on protein G/A magnetic beads; western blot; cells untreated or treated with LPS, FSL-1 or Pam3CSK4, with overexpression or siRNA knock-down of the third protein (DDX5, METTL3, METTL14), or with MyD88 or TRIF siRNA
[2] = target: DDX5 (endogenous, mouse cells) (mouse (endogenous in MEFs and mouse macrophages)) (UniProt Q61656); assay: co-IP; endogenous proteins in mouse macrophage (Mø) lysates; precipitated with an antibody on protein G/A magnetic beads; western blot; cells untreated or treated with LPS, FSL-1 or Pam3CSK4
[3] = target: Flag-DDX5 (mouse) (UniProt Q61656); assay: co-IP; 293T cells co-transfected with Flag-DDX5, HA-METTL14 and/or Myc-METTL3 (third plasmid at 2.5, 5.0 and 10.0 µg or control vector); lysate precipitated with an antibody on protein G/A magnetic beads; western blot
[4] = target: T1, HA-METTL14 (mouse) (UniProt Q3UIK4); assay: as above
T1 sequence: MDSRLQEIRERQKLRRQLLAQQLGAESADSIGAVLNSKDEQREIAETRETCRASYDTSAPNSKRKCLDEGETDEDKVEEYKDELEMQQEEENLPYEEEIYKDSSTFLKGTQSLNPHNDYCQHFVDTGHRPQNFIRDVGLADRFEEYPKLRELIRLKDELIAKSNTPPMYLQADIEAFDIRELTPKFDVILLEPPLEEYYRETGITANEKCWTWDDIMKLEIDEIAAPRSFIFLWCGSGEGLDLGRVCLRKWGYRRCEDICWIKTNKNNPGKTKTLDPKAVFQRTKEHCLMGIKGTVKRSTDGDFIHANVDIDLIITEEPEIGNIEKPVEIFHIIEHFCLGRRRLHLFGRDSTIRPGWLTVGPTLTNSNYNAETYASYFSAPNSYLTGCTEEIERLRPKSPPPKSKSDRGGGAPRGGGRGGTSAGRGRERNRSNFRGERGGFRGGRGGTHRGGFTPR

[5] = target: METTL3 (endogenous, MEFs) (mouse (endogenous in MEFs)) (UniProt Q8C3P7); assay: co-IP; endogenous proteins in MEF lysates; precipitated with anti-DDX5, anti-METTL3 or anti-METTL14 antibody on protein G/A magnetic beads; western blot; cells untreated or treated with LPS, FSL-1 or Pam3CSK4, with overexpression or siRNA knock-down of the third protein (DDX5, METTL3, METTL14), or with MyD88 or TRIF siRNA

binding [1]: binds
Molecule: METTL3 (endogenous, MEFs) (from UniProt Q8C3P7 1-580)

binding [3]: binds
binding [4]: binds
Molecule: Myc-METTL3 (from UniProt Q8C3P7 1-580)

Continued, molecule first:

Molecule: Hrd1 (endogenous, mouse cells) (from UniProt Q9DBY1 1-612)
binding [1]: binds
binding [2]: binds

B1: METTL14 (endogenous, mouse cells) (protein, UniProt Q3UIK4 1-456)
chain: T1 sequence
binding [5]: binds
